No constants are given. Whether binding was seen depends on the method and setting. Binding seen in cells or lysates may run through a third protein. These calls come from enrichment with a bait or labelling near it, and not all partners need be listed. One block for each molecule: values may come before it.
Columns and labels:
Assay in all cases: affinity purification with mass spectrometry; bait endogenously TAP-tagged at its C-terminus, tandem affinity purification from native S. pombe lysate, co-purified proteins identified by 2D LC-MS/MS; duplicates, only proteins found in both replicates
Ubp8-TAP (S. pombe) = biological target: T1, Ubp8-TAP (S. pombe) (UniProt Q09738)
T1 sequence: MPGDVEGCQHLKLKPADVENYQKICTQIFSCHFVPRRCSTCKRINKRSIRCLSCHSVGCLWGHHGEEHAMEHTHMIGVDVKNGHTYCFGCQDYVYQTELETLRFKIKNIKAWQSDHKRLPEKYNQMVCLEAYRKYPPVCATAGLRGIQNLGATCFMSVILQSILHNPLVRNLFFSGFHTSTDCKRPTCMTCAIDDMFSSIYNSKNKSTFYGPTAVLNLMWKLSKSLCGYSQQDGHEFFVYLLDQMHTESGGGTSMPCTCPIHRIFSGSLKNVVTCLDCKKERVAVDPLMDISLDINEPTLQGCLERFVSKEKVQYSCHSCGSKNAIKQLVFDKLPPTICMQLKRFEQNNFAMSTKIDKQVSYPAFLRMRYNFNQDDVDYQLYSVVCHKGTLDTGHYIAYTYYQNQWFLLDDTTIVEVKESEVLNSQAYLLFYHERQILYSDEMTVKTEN

Amino acid sequences for entries named in this document (tags omitted).
UniProt Q9HFE8: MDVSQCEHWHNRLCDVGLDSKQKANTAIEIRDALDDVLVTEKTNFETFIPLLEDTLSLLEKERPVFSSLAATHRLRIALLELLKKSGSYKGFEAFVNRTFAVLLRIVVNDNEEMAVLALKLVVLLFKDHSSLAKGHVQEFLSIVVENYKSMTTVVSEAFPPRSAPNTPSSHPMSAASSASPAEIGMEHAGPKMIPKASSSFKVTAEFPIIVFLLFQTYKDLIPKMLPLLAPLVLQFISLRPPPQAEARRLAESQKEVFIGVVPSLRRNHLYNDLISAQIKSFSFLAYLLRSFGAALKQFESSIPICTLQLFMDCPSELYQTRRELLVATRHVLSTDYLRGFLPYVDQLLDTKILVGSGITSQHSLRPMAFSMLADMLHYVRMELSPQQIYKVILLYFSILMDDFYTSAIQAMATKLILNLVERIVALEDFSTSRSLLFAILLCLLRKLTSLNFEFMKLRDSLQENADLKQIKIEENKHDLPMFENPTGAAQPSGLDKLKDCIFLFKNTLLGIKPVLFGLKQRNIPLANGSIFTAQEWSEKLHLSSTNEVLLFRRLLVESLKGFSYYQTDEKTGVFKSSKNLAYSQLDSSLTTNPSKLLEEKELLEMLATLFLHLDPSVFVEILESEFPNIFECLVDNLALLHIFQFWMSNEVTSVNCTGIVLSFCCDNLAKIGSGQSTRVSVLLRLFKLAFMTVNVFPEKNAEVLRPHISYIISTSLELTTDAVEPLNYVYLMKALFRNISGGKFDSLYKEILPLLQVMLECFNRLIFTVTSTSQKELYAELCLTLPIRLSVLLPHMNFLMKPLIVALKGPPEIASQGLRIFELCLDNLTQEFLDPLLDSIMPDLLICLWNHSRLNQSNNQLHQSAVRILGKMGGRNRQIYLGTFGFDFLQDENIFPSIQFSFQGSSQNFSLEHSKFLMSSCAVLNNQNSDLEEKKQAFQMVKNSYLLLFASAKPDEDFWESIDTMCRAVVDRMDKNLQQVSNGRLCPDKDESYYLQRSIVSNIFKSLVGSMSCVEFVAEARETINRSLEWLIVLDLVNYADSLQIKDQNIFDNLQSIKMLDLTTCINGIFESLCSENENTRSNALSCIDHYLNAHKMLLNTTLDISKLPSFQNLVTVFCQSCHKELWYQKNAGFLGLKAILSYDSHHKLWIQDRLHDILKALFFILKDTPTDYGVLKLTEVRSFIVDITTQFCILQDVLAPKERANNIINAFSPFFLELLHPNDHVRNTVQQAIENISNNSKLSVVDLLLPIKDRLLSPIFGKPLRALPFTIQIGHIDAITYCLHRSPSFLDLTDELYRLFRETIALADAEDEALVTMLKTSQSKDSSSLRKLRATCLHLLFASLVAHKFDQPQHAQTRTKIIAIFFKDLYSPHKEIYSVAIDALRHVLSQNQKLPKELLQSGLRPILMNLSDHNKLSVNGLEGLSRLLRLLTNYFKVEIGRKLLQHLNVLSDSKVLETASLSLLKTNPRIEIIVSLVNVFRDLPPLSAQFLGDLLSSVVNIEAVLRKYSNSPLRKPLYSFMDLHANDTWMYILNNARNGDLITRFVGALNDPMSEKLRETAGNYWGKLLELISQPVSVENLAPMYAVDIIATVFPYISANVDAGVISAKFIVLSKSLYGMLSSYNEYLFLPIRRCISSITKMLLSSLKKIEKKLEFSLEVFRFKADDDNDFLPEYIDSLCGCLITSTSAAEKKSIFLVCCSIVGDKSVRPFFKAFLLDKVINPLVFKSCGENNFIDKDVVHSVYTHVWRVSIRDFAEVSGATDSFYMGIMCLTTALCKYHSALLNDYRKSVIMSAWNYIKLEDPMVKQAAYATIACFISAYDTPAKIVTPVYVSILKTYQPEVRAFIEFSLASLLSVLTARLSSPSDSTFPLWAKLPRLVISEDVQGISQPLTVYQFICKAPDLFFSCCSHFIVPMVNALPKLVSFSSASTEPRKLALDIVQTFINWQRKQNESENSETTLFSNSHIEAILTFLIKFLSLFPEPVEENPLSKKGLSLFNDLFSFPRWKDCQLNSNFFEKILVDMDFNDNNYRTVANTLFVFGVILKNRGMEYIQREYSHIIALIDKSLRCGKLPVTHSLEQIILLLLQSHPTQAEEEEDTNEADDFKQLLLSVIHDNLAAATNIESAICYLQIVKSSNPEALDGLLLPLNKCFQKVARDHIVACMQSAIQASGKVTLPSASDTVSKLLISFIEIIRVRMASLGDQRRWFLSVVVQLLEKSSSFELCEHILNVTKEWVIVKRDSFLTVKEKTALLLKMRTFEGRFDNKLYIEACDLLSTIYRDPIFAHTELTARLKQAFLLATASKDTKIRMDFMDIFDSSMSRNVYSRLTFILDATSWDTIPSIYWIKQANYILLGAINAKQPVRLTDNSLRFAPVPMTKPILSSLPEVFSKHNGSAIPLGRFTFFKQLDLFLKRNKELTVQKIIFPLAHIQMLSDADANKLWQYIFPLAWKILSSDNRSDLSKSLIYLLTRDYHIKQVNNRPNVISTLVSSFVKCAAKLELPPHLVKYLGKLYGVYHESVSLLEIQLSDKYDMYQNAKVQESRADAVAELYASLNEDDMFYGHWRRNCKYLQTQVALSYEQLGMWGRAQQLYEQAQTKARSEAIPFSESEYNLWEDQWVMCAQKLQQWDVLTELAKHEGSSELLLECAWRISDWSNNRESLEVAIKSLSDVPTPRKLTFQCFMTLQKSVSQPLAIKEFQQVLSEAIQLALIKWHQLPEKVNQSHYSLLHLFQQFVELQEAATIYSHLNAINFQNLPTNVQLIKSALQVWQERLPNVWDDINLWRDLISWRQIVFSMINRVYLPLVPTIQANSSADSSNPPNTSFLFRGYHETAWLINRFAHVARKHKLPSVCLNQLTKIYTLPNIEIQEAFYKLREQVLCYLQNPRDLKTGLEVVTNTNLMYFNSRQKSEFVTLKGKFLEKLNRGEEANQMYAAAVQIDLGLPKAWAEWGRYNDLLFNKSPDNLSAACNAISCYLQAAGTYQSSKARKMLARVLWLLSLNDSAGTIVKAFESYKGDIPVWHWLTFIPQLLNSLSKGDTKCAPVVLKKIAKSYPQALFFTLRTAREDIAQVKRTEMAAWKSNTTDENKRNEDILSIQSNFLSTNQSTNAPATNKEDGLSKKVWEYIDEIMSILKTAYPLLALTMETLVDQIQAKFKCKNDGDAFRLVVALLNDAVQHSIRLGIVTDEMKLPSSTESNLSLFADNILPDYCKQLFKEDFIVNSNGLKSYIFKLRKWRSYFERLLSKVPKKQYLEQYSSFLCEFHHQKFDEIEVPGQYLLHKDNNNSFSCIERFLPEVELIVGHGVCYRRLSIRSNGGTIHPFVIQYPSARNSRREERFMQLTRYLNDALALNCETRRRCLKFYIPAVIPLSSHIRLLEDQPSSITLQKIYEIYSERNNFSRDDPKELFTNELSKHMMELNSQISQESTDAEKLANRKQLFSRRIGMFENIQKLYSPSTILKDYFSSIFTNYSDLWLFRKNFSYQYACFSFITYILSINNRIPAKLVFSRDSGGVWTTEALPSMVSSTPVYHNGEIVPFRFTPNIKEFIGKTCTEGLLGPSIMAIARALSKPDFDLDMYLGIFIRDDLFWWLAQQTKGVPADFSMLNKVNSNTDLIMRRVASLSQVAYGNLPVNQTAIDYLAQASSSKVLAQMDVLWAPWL

Uch2-TAP (S. pombe) = biological target: T2, Uch2-TAP (S. pombe) (UniProt Q9UUB6)
T2 sequence: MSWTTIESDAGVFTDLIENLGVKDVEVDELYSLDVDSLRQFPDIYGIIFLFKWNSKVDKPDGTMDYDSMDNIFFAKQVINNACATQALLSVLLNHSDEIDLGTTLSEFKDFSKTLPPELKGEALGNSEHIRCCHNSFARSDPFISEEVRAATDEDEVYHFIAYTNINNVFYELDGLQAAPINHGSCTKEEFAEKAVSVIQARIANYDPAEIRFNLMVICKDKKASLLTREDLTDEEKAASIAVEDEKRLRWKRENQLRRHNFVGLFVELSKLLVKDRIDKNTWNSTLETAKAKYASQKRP

Ubp15-TAP (S. pombe) = biological target: T3, Ubp15-TAP (S. pombe) (UniProt Q9UTT1)
T3 sequence: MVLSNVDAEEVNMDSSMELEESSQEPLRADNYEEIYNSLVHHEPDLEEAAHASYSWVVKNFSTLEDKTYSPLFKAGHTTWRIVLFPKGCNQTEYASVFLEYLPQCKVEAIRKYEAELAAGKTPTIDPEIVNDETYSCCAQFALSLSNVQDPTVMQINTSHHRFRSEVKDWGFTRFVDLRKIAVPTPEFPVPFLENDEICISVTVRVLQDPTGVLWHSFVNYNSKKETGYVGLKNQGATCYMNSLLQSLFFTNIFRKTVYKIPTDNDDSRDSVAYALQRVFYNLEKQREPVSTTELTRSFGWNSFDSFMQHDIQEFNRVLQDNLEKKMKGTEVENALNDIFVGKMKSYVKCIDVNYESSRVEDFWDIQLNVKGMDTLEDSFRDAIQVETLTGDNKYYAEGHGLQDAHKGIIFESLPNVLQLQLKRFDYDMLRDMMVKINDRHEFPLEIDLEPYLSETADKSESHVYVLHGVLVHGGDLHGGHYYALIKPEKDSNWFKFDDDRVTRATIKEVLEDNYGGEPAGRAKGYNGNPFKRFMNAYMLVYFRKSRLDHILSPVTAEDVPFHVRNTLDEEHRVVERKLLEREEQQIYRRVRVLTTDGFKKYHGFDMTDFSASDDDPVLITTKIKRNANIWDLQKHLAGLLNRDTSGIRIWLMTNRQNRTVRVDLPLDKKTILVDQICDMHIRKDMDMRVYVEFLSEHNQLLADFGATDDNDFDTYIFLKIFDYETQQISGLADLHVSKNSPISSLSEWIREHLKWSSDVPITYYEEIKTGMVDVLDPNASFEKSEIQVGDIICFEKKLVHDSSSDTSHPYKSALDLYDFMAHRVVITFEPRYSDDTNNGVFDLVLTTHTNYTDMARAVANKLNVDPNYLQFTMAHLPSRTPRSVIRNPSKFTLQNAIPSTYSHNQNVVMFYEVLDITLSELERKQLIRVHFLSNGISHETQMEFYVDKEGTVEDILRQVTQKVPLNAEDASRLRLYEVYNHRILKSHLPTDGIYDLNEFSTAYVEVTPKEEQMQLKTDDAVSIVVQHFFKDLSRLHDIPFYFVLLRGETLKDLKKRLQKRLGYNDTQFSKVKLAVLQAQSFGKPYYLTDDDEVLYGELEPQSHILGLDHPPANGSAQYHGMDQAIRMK

B2: Sgf29 (protein, UniProt Q9USW9 1-244)
chain: MVRPINAEEDVTSMWVKFHESLNPIRSSLIKQEECYKTVDGDDNPIEERIKACDAGIQTSEEQKKELEHTMQSLEMIINVLEKANEKPVITNSPLTRSRRNRGTSFTANTVTFTPGMSVAFKLPYTRHNEGGDWIQCIIIKVTGEGAKQRFEVQDPEPDDDGNAGQIYKTTANHLIQIPAKGTPLPPISPKTNVLARYPETTTFYRAEVIRTLPDGSCKLRFEGEEEVGKETVVERHLVLEYNG
- binding (Ubp8-TAP (S. pombe)): binds

B3: Rpn1301 (SPBC342.04) (protein, UniProt Q9Y7Y6 1-291)
chain: MSLITFKAGKLRRVPGTKLLRADPEKGYIVMNRDAYGLIHFQWAKRNDLENPEDDIIVFSSECTFEKVTECTTGRAYMLKYPSSAHSLFYWMQEASDDNDTSYAERINSYIKDQDLLDPARSDVATVSDMMEVDTVEQSEPIAQPTESSKESSEIGAPNSDEINSSEAVRNLLATISAQAGFGGSTVDLCEILKPSNLTDLLCQEGVIDRLMPYMPPDTPNNLEGVLAIVSSPQYAQALRSFSQALNSPGGVNIISALGLSLDESANPNEGGALQFLKAIARFVSRNNGSE
- binding (Uch2-TAP (S. pombe)): binds

B4: Bun107 (binding Ubp9 of 107 kDa) (protein, UniProt Q09731 1-962)
chain: MSVRKRYKVTYVLDSCNDQLGHRLDANCLVLGRYFSEQGSAPVTRALYSGGRDGQLFGWDIGYDYGKASQPLAKIQAHSAWVNDIALTHDSEGVISCSSDSTVKLWKPHVLNASCLSTIGEHTDYVKRVSIPKYSKSPLVASGGLDKRIIVWDYNVGQEVMRFEQLPDCSLVVGPRSGVYSLAANNNIIANGGLQKDIQLWDCVSKKRITDLVGHTDNVRDILISDDGRTILTASSDATIKLWSLRAQKCLFSFIAHSDSVWALYSEHPDLKVFYAGDRSGLITRTDIRNQPNNQSCTAICKQDAPVSDIVARQSFIWSTSRDGSILRWKDEPLFNQDVGAALSKHTSSHLSVSSDCPSRHSSDIRNHSCPTLYHDDAEDIYYDLHHTESYSNINLTKTPDYVIHGGIGLLKYRMLGDRRHVLTEDAVGNKCLWDILACKQAGEFDKSEDFEKIVQSLDTVQAIPRWASVNCLLGILAVTLDENHYMDAEIYADECPLLKVDSPSDKRINLGVWILKNLFREFIDAELHRDLKFRQNLDVVRSEAKKQIEAQREEARKGNVNMPSALSPLRIRSRPSPLSLPPEPLLSPTIDYSATPFPLEPPPESPGPSLQIPSNNPVYTNLTDTDSMMGAPDYFSIPARQNRNRKPHTEVVGSPTVVRTKEIIPPKVTREGSFMGRLKKLGRSKSSKSLQTDFMKASVERAASSRVFSTGTSVTSPQALSKTNNTVNNAANTENNTLAKDKQQTSEASSPGTPRELKTTGELIEDLHEQYVHFKDKDTVLSLMKPPNDDTFPMLNLSSQITVIISEESPEAGNSRDIYRSTLENMADDIDLLENIMPFWLGRLLLLNEFPSKTAPTVNFTLQPFPGSGLPLIVNENTRLSASAMLRAQKIMDYSYSKLSQQRKDVSSLQFRCKDVVVTPKMTLATVKARIWRSGDDVVFHYDVAPRSVSEIVDKTQSLNI
- binding (Ubp15-TAP (S. pombe)): binds

B5: Pob1 (protein, UniProt O74653 1-871)
chain: MASQRFVIALHSFPGKSSDELPLVEGRKYLLIKMDEEFGDGWWEGEDEQGNRGIFPASHVELISDERSDSSDSRRGKEDFSISTAEVTRSSLSSSRSTSSRSDKDSEKLYSNNSLSSSHSSILNGPLDSLSKPSVPSNFNSMFPSSKQEGPSPLLDNQPSSDLSNFNTIDADYNNASASTSAPATSASLKKVLSAEDSVRETITDIETALQNMSTSASRTPNDSSPLPYIENRPASSLAVSEKIQNVPNWSTEEVVEWLMNAGLGSVAPNFAENEITGEILLGLDSNVLKELNITSFGKRFEVLRKIQQLKDSYEQSLYEEYPQFAEPISVSQSSDSSSSIPKKSNDEAGGSPSKSSPTRPGFNDYVNRPTSVMPSLSNMIVSPDLDSSPSTDWNQYVIPPLATPSSRNSKSTQSAVPENVSRFDSNEPSATSPILKRSSPTDSISQNSGLPSRLTEPISSPSTSSIDVDKEGTSFPGLPYHSSKGNLYAPQPSSNVPTKFTGGASESSSVPPRPIPSAMKGKAPASAISIEALEELDPPKITTIDGESPSSISSRLPSSNLEQGSSSSVTKSPESMPDPSAKASSPVTSKGVSINEKSAVNNYATPLSKPQPKDTKGSKLGNTFVAPSPAASLPASPPVGTELKTRPTLRSVASSPLNKEPIGKRKSKRDIFGRQKVLPTGISEGLSNIPAKEAIKTADCHGWMRKRSDRYGVWKSRYFVLKGTRLSYYHSLNDASEKGLIDMTSHRVTKTDDIVLSGGKTAIKLIPPAPGAAKAAVMFTPPKVHYFTCENNEELHRWSSAFLKATVERDMSVPVLTTSRMPTISLSKAKELRTRPPSLLIDDENEANLTSSIGLKKNAKQKNKKSSKQK
- binding (Ubp15-TAP (S. pombe)): binds

Next, values leading:

- binding (Ubp8-TAP (S. pombe)): binds
Molecule: Tra1 (from UniProt Q9HFE8 1-3661)

- binding (Ubp8-TAP (S. pombe)): binds
B1: Sgf73 (protein, UniProt O94397 1-344)
chain: MLTEQQTLELFPENWERNEQVLLKYPDGLPKDVLADQRVDNTESQVKDEITSNITNQTQILLPADSFPQYGSYPNNSELDYVVCTKCDRPFLSEYIEDHHSSCNGIKPPKPQFEPVANSQVLNKDVNNGNNAPIKNGVKSTAKGSAGNHEKNSVNGQKNPEMPPKRRKTEENKKPTKSALPKKEASKKKNPKVKGPVDVEKQCGVLLPNGQMCARSLTCKTHSMSSKRAVPGRSQPYDVLLAACQKKNQVKIQRQILETAKESEDNQHQAPVDSDEEVSFIMNVLQKSGNQPLEQKVFLPVKRRHSYFRTRELIAAAFRHGEQGMQVTGTILGRVIPFSARQPL

— article PMC2935449
